Article PMC3989216
Results are given in words; binding and its absence hold for the method and conditions named. Binding calls can cover weak binding; strength is not graded here. Where a sequence is shown, tags or fusion partners need not be part of it. For some assays here: In cells and extracts the contact can be indirect. One block for each molecule: values may come before it.

What was measured:
[1] = molecular target: T1, His-SGF1, full-length silk gland factor 1 (fork head transcription factor) (Bombyx mori) (UniProt Q17241); assay: ELISA; purified His-SGF1 (0.5 ug) fixed in a 96-well polystyrene plate overnight at 4 C; Bmsage-GST in PBS for 2 h at 37 C; detected with rabbit polyclonal anti-Bmsage antibody, absorbance at 450 nm; BSA as negative control; both purified
T1 sequence: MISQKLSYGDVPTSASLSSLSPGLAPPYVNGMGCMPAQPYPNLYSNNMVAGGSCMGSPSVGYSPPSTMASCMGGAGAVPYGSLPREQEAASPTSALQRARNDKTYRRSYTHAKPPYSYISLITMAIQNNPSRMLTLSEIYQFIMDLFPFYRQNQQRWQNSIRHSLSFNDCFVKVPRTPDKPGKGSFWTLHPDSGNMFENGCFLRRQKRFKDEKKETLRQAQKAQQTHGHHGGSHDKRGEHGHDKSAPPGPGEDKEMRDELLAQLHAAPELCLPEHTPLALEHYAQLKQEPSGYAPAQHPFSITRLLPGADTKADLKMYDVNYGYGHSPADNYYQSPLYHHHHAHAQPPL

[2] = molecular target: T1, His-SGF1, full-length silk gland factor 1 (fork head transcription factor) (Bombyx mori); assay: far-Western, overlay or dot blot; purified SGF1 (1 ug) separated by SDS-PAGE, transferred to PVDF, denatured and renatured; membrane probed with purified Bmsage-GST, detected by anti-GST antibody; both purified
[3] = molecular target: T2, HA-tagged SGF1 (Bombyx mori) (UniProt Q17241); assay: co-IP; nuclear extracts of BmE cells over-expressing Flag-Bmsage and HA-SGF1; IP with anti-Bmsage or anti-SGF1 antibody on Dynabeads, 2 h at 4 C, 25 mM Tris pH 7.4, 150 mM NaCl, 1 mM EDTA, 1% Nonidet P-40, 5% glycerol; blot with HA or Bmsage antibody
T2 sequence: T1 sequence

[4] = molecular target: T1, His-SGF1, full-length silk gland factor 1 (fork head transcription factor) (Bombyx mori); assay: native gel or EMSA; 1 ug purified recombinant proteins with Cy3-labelled A or B element DNA probe of the fib-H promoter, 25 C; 5% polyacrylamide gel in 1x TBE; further shift of the SGF1-DNA band with Bmsage; both purified
[5] = molecular target: Flag-tagged Bmsage (Bombyx mori); assay: co-IP; nuclear extracts of BmE cells over-expressing Flag-Bmsage and HA-SGF1; IP with anti-Bmsage or anti-SGF1 antibody on Dynabeads, 2 h at 4 C, 25 mM Tris pH 7.4, 150 mM NaCl, 1 mM EDTA, 1% Nonidet P-40, 5% glycerol; blot with HA or Bmsage antibody

Molecule: recombinant Bmsage protein (as used in EMSA) (Bombyx mori)
binding [4]: binds

B1: HA-tagged SGF1 (protein, UniProt Q17241 1-349)
chain: T1 sequence
binding [5]: binds

Continued, values first:

binding [1]: binds | binding [2]: binds
Molecule: Bmsage-glutathione S-transferase (GST) fusion protein, full-length (Bombyx mori)

binding [3]: binds
Molecule: Flag-tagged Bmsage (Bombyx mori)
